These are yes or no findings as the source states them, for the method shown. Binding seen in cells or lysates may run through a third protein. Some results given as binding are weak or reduced against the parent protein; the word gives no strength.
Columns and labels:
Experiment in all cases: pull-down; His6-TbREL1 TNT mixture mixed with an equal volume of untagged KREPA2 TNT mixture, captured on magnetic His-tag isolation beads (Dynabeads); binding buffer 50 mM NaPO4 pH 8.0, 300 mM NaCl, 0.01% Tween 20; 20-30 min at 4°C; three washes; [35S]-methionine-labelled proteins on 10% SDS-PAGE, PhosphorImager; KREPA2-only control for background
[1] = molecular target: T1, T. brucei RNA Editing Ligase 1 (TbREL1), full length wild type (Trypanosoma brucei) (UniProt P86926)
T1 sequence (chain, [35S]-methionine labelled): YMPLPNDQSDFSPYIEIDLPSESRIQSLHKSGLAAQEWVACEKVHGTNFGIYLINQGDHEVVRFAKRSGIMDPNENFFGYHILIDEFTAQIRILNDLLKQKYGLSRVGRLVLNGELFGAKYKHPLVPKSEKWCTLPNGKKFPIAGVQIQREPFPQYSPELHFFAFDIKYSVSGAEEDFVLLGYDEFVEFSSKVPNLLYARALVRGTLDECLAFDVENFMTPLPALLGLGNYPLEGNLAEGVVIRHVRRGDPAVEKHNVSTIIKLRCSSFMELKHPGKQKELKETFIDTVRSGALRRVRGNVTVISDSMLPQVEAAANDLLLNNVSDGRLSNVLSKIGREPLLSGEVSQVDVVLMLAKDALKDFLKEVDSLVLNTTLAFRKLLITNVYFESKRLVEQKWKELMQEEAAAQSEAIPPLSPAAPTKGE

[2] = molecular target: T2, TbREL1 E410A (Trypanosoma brucei) (UniProt P86926)
T2 sequence (chain, [35S]-methionine labelled): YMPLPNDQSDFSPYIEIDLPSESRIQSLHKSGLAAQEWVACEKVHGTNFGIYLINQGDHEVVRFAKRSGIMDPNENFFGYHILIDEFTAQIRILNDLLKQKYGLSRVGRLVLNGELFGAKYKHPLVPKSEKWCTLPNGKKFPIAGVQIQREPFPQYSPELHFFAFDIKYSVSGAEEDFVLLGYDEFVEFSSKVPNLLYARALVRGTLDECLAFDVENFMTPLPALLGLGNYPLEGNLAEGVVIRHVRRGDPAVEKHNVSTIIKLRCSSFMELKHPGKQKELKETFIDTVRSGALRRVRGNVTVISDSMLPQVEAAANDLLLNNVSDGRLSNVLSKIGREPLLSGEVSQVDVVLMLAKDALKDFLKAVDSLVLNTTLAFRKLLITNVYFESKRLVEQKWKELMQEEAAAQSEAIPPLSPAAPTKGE

[3] = molecular target: T3, TbREL1 K435A (Trypanosoma brucei) (UniProt P86926)
T3 sequence (chain, [35S]-methionine labelled): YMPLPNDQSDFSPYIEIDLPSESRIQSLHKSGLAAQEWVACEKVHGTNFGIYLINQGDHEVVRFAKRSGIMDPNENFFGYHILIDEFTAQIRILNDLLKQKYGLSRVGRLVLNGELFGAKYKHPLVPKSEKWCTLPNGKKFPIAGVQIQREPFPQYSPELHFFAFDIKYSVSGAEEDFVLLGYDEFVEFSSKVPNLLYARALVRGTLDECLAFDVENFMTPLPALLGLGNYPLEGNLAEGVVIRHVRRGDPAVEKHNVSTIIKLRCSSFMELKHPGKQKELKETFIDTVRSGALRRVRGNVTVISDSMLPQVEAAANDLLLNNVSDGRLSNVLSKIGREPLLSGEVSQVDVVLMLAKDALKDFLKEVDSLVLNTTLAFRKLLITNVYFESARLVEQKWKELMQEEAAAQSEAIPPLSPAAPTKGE

[4] = molecular target: T4, TbREL1 Y275A (Trypanosoma brucei) (UniProt P86926)
T4 sequence (chain, [35S]-methionine labelled): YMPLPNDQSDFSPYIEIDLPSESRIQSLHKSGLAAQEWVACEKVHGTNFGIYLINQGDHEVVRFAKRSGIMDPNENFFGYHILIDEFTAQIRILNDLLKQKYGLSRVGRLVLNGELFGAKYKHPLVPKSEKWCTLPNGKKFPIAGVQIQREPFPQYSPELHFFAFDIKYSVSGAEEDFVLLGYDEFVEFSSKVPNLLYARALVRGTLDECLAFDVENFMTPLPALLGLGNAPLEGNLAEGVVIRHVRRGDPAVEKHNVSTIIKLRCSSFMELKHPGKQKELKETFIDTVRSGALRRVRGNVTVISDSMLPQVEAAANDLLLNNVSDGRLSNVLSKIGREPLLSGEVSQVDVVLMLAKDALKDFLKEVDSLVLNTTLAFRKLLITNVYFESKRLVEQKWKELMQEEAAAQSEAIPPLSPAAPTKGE

Measured: binding

B1: KREPA2 (natural protein)
chain: MYRRFFRSAAVKHLGTTSAQCLMRATKYPCGAMCRNASSCHPQTLGYQQRFQSTTDKKFHCSVCKKPFRLEMAAKLHLQQAHGGDGSVEAGPGPGVEASSVNVVSTPVPSPISPVERTFVDEEERRPRRMRPTPKPLHQPDRDIPAAAMEEMLGVWDKIGLNRLEGNFVHSTMVMKVFAAPPDVSEIPLYEHVAPEGENPFDSLDHMTTGTVDATYVGHDAFAEVDLVDPFVAAPDQTLNPFRAGKVRNPFTRISPTQREVVKPLQPPQPKEEPLKAPVTPFGQLPMFGQTREPSASFAAAAVSVQAAANPNEVSSPFAAAVSSSPFVGQVASPFAPAQDVAGSPFEASPCAASSPFVTAGGQETSPFAAPSTPASFGQGSLFPPMGTGAPGFTAITETEQRQQELEHGCPTCGKKFSTFEGAAMHSKSKHGIVLESKKVKDRLNRKGVPDLPAYVPSPVDLSSTSPFGTRSAIGASWAETELIPHAQCVSNITIVGRVLDVSQASENVSHVTVFVEGERSGEEETLTLCCFGEVSQKIRGTLKRNATIFASGTLRLHPVYEASNNKYYVSPVVHVSMPTGTLAVIT
modifications: [35S]-methionine labelled
notes: KREPA2 of T. brucei, the KREPA2 open reading frame, expressed untagged (63 kDa); source: in vitro translated (TNT reticulocyte lysate coupled transcription and translation system, Promega)
binds: all assays above

— publication PMC4366279 (PLoS ONE, 2015)
